Measured values: publication doi:10.1101/614636
Results are given in words; binding and its absence hold for the method and conditions named. Some binding calls cover weakened binding; strength is not graded here.

Target: T1, BREAKING OF … IN THE STOMATAL LINEAGE (BASL), full length, yeast two-hybrid bait (Arabidopsis thaliana) (UniProt Q5BPF3)
T1 sequence: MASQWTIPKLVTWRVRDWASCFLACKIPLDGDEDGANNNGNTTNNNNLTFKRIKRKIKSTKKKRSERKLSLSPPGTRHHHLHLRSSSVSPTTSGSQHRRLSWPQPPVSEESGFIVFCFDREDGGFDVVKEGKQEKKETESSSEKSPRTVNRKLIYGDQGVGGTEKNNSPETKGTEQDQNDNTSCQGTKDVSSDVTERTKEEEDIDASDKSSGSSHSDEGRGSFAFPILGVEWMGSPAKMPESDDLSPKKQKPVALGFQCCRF
Test: two-hybrid

binding: binds
B1: BREVIS RADIX (BRX), pairwise yeast two-hybrid construct (protein, UniProt Q17TI5 1-344)
chain: MFSCIACTKADGGEEVEHGARGGTTPNTKEAVKSLTIQIKDMALKFSGAYKQCKPCTGSSSSPLKKGHRSFPDYDNASEGVPYPFMGGSAGSTPAWDFTNSSHHPAGRLESKFTSIYGNDRESISAQSCDVVLDDDGPKEWMAQVEPGVHITFASLPTGGNDLKRIRFSREMFDKWQAQRWWGENYDKIVELYNVQRFNRQALQTPARSDDQSQRDSTYSKMDSARESKDWTPRHNFRPPGSVPHHFYGGSSNYGPGSYHGGPPMDAARTTTSSRDDPPSMSNASEMQAEWIEEDEPGVYITIRQLSDGTRELRRVRFSRERFGEVHAKTWWEQNRERIQTQYL
